{"source": "patent US8415128B2", "about": "“Mitigation of photodamage in analytical reactions” (Pacific Biosciences of California, Inc., priority 2005, dated 2013)", "system": "DNA polymerase enzymes", "assay": "Chromatide incorporation activity after photodamage step on planar glass substrates", "format": "biochemical", "settings": "Trolox at 1 mM, PPD at 100 mM", "description": "In the experiment, DNA polymerase enzymes were immobilized on planar glass substrates (fused silica microscope slides) and subjected to reaction conditions under which DNA synthesis was taking place. Each reaction mixture also included a baseline level of photodamage mitigating agents (10 mM MEA-Ac, 0.1×GO-Cat, 25 mM Tris-Ascorbate). The reactions were carried out under laser illumination of varying power.\nFollowing the photodamage step, all the solution was washed from the chip and replaced with ordinary buffers and dNTPs. In addition, a base labeled fluorescent nucleotide (chromatide) was added to provide a fluorescent signal of incorporation activity following the photodamage step, above. […] The activity of the enzyme was measured based upon the relative fluorescence of the DNA on the slide.\nTable 1, below provides the percent chromatide relative to a non-illuminated control region, for each different additive at the listed laser power.", "note": "Some entries share one result that the patent states for a list of compounds. At least one compound was matched to its structure with a doubt left."}
{"smiles": "Nc1ccc(N)cc1", "note": "[PPD, p-phenylenediamene]", "values": [{"measurement": "improvement over the baseline mixture", "value": "> 100", "unit": "%"}]}
